According to paper PMC9925311:
These are yes or no findings as the source states them, for the method shown. Binding seen in cells or lysates may run through a third protein. Some entries that bind do so weakly or less than the wild type.

Sequences of proteins named here, by UniProt entry; tags and fusion partners are left off. A change or cut given only in a name is not applied to a line headed by its entry.
UniProt P35222: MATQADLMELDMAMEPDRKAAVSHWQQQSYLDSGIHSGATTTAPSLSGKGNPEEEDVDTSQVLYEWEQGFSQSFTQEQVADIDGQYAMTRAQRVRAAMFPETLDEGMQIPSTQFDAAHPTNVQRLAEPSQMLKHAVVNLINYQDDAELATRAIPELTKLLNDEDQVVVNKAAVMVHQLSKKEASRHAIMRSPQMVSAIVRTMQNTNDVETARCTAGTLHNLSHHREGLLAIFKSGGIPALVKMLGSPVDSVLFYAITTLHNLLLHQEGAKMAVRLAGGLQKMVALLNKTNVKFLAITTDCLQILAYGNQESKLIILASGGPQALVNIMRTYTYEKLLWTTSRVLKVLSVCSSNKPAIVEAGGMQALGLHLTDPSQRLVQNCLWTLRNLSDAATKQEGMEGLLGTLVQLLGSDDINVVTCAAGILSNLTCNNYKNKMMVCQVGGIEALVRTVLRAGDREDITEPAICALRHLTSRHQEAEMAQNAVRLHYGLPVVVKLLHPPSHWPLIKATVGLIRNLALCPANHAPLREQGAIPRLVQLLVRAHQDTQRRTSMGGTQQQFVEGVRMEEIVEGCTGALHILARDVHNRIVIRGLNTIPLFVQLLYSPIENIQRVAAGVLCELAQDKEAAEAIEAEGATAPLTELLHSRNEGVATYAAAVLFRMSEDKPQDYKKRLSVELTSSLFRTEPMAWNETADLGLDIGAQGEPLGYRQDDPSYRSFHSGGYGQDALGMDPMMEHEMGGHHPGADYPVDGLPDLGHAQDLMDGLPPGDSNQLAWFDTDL
UniProt Q07832: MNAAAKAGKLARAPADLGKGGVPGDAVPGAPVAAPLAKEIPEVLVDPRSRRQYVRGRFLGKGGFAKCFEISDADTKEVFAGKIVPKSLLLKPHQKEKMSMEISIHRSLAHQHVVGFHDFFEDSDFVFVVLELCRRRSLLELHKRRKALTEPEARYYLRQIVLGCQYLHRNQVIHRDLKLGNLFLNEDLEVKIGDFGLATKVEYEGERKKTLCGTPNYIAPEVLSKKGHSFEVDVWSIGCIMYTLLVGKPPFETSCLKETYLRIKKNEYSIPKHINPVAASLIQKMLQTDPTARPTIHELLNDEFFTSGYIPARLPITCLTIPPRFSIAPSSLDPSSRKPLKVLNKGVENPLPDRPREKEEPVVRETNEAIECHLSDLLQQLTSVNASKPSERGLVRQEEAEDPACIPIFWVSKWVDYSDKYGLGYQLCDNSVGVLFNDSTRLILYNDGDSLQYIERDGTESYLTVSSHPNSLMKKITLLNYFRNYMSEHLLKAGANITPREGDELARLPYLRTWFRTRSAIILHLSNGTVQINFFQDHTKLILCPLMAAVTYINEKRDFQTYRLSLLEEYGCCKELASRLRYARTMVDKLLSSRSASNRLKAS
UniProt P53350: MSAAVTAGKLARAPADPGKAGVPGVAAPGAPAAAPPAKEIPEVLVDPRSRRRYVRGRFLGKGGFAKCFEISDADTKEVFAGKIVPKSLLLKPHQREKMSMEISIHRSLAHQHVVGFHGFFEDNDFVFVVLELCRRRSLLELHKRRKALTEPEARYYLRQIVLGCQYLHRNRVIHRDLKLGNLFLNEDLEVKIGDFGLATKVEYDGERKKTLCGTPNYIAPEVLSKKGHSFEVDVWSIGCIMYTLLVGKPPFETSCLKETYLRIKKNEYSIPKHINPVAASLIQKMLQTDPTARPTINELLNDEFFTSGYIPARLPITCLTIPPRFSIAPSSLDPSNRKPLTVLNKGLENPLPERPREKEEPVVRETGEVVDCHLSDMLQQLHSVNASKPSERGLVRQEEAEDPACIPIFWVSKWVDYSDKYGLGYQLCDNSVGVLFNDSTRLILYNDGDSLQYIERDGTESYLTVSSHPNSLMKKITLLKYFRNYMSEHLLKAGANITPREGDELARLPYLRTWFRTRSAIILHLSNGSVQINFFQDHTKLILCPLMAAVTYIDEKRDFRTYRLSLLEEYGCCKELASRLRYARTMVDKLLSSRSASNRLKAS

Experiments:
[1] = molecular target: GST-tagged β-catenin (human (gene ID 1499)) (UniProt P35222); assay: pull-down; GST-β-catenin on glutathione-sepharose 4B beads incubated with lysates of HEK293T cells expressing Flag-Plk1 forms, 2 h at 4°C; washed four times with cell lysis buffer; blots with anti-Flag and anti-GST; only the target purified
[2] = molecular target: β-catenin, endogenous (human (endogenous in A549 and NCI-H460)) (UniProt P35222); assay: co-IP; lysates of A549 or NCI-H460 cells, with TGF-β (2.5 ng/ml, 48 h) or vehicle; immunoprecipitation with normal IgG, anti-PLK1 or anti-β-catenin, 16 h at 4°C, protein A/G agarose; blots with anti-PLK1 and anti-β-catenin

Substance | binding [1] | binding [2]
Flag-tagged C-terminus (a.a. 306-603) of PLK1 (from UniProt Q07832 306-603) (domain or fragment) | binds | 
Flag-tagged N-terminus (a.a. 1-305) of PLK1 (from UniProt Q07832 1-305) (domain or fragment) | no binding | 
Flag-tagged wild-type PLK1 (from UniProt Q07832 1-603) | binds | 
PLK1 (polo-like kinase 1), endogenous (from UniProt P53350 1-603) |  | binds
